Data as given in US4497812A, “2-Amino-5-aminomethyl-2-oxazolines, compositions and use” (Societe Cortial, S.A., priority 1982, dated 1985).
At least one compound was matched to its structure with a doubt left.

Tests used:
[1] = potentiation of the toxicity of yohimbine; type: in vivo; conditions: oral dose of 100 mg/kg
[2] = ptosis induced by reserpine; type: in vivo; conditions: 50 mg/kg per os
[3] = system: right auricle of a guinea pig beating spontaneously; assay: antihistaminic activity antiH2 in vitro, histamine-induced chronotropic effect; type: cell-based; conditions: 100 microg/ml
Protocol: Antihistaminic activity antiH2 was determined in vitro on the right auricle of a guinea pig beating spontaneously.

Compound | potentiation of the toxicity of yohimbine [1] | inhibition of ptosis induced by reserpine [2] | intrinsic chronotropic effect [3]
NC1=NCC(CN2CCN(c3ccccc3)CC2)O1 (stereo not shown) [Example 11] | potentiated the toxicity of yohimbine | inhibited ptosis induced by reserpine | –
NC1=NCC(CN2CCC(Cc3ccccc3)CC2)O1 (stereo not shown) [Example 12] | potentiated the toxicity of yohimbine | – | –
NC1=NCC(CN2CCN(Cc3ccccc3)CC2)O1 (stereo not shown) [Example 13] | – | – | without exhibiting intrinsic chronotropic effect
